Entries after “also recorded” stand apart in the source; their conditions may differ.

By UniProt entry, the sequences of proteins in these tests, tags left out.
UniProt I3U4H4, whole entry M1V: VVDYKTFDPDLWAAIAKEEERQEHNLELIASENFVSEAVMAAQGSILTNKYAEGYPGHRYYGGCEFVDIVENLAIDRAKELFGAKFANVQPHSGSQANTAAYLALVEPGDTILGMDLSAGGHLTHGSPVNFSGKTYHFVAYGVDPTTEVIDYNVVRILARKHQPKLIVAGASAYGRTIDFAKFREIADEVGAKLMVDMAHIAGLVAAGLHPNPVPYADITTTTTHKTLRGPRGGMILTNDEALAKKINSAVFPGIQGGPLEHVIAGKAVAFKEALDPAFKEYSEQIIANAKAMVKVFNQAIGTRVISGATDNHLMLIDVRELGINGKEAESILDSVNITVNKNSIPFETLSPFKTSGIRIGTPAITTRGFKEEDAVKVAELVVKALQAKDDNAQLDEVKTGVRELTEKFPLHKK

Test [1] deals with efmSHMT (Enterococcus faecium, UniProt I3U4H4, M1V). In kind it is binding. To be noted: 5 μM efmSHMT; 10 mM Gly and 100 μM Ser; Cheng-Prusoff. On the procedure: After adding Me-THF, the efmSHMT solution was incubated for 30 min at room temperature. The optical density at 500 and 600 nm (OD500 and OD600) were then measured using a nanodrop spectrophotometer[24],[25]. OD600 was used as the background. After detection, each concentration of inhibitor was added to the efmSHMT solution and incubated for 30 min at room temperature. OD500 and OD600 were measured. The relative OD500 intensity was calculated as relative OD500 = (OD500 – OD600)/(MAXOD500 – OD600), where MAXOD500 is the average OD500 value in the presence of 1000, 2000 and 4000 μM Me-THF without inhibitors. […] Here, IC50 is the concentration of inhibitor added to the efmSHMT solution and [Me-THF] is the EC50 in the presence of the inhibitor concentration. [EC50 without inhibitor] is the EC50 of Me-THF in the absence of the inhibitor.

Test [2] has as its system E. faecium. Kind of test: Bacterial viability assay (Microbial Viability Assay Kit-WST, OD450). The settings on record: Enterococcus faecium, relative bacterial viability after 14 h incubation. In kind it is cell-based. As for the experimental part:
Living E. faecium were determined using the Microbial Viability Assay Kit-WST (DOJINDO, Tokyo, Japan). Briefly, E. faecium were grown overnight at 37 °C on Nissui Plate Sheep Blood Agar. […] Positive control wells included bacteria seeded into MH broth without compounds, and the negative control wells contained MH broth only. […] Five microlitres of the colouring reagent were added to each well of the 96-well plate every 2 h after starting incubation with each compound. The absorbance at 450 nm (OD450) was measured 1 h after adding the colouring reagent using the GloMax microtiter plate reader (Promega, Tokyo, Japan).

As to `CN[C@H]1CC[C@@H](c2ccc(Cl)c(Cl)c2)c2ccccc21` [SER, sertraline], the Ki result in test [1] is recorded as “did not change the OD500; also recorded: did not bind”. Besides, the response in test [2] was half-maximal at 13 µM (EC50).

For the origin of these results see paper PMC9223267, “Serine hydroxymethyltransferase as a potential target of antibacterial agents acting synergistically with one-carbon metabolism-related inhibitors” (Communications Biology, 2022).
